This experiment can be described thus: qHTS Assay for Lipid Storage Modulators in Drosophila S3 Cells.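 For cell number change: cells counted by Cell Tracker Red CMTPX staining in the red channel.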 As to conditions: BODIPY lipid droplet fluorescence, 18-24 h; for cell number change: measured here: cell count max response, cells fed with added oleic acid. In outline: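 Drosophila S3 cells got compounds at several concentrations plus oleic acid (400 uM solution). Laser-scanning cytometry with 488 nm excitation read lipid droplets at 500-530 nm and cells at 575-640 nm. Percent activity was relative to 20 uM Triacsin C.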

Setting [1] is: measured here: lipid fluorescence (Fed channel) AC50, cells fed with added oleic acid.
[2] abbreviates: measured here: cell number channel AC50, cells fed with added oleic acid.

The list shows a part of the results. The main result of the screen is listed elsewhere. These columns were measured beside it and carry no call. Most of these compounds were active or inconclusive in the main read-out, so they are no random draw. Words in brackets tell the shape of the fitted curve; partial curves, single points and poor fits give uncertain potencies.

Turning to `Cc1csc2c(SCC(=O)NNS(=O)(=O)c3cccc(C(F)(F)F)c3)ncnc12`, the cell number change was found to be 16.7%. Further, under setting [1], the AC50 is 259 nM [falling, full curve, poor fit].

In the case of `Cc1ccc(C(=O)NNC(=O)c2ccc(-n3cncn3)c([N+](=O)[O-])c2)cc1`, the cell number change was found to be 50%. In addition, the AC50 under setting [2] was 130 nM [falling, full curve, poor fit]. For the same molecule, under setting [1], the AC50 is 2590 nM [rising, partial curve].

As for `CCOC(=O)C1=C(N)Oc2cc(O)ccc2C1c1cccnc1` (centres undefined), the cell number change is -10.8%. For the same molecule, the concentration at half-maximal activity (AC50) under setting [1] was 5.17 nM [falling, full curve, poor fit].

With `COc1ccc(S(=O)(=O)N2CCC3(CC2)CC(=O)c2ccccc2O3)cc1C`, the cell number change is -5.83%. Moreover, the half-maximal activity concentration (AC50) under setting [1] was 5170 nM [falling, full curve, poor fit].

For `COCCNC(=O)c1ccc2c(c1)nc(C)n2-c1cccc(F)c1`, the cell number change was -8.11%.

As to `Cc1cccn2c(/C=N/OCc3cccc(F)c3)c(-c3ccc(Cl)cc3)nc12`, the cell number change amounted to 12.9%.

Turning to `CC(NC(=O)CN(c1cccc(C(F)(F)F)c1)S(=O)(=O)c1ccc(Cl)c([N+](=O)[O-])c1)c1ccccc1` (centres undefined), the cell number change is -35.7%. In addition, the concentration at half-maximal activity (AC50) under setting [2] is 23100 nM [falling, single point]. For the same molecule, under setting [1], the AC50 was 29100 nM [falling, partial curve, poor fit].

As for `CCCCCCCCCCOC(=O)C[N+](C)(C)C/C=C(/C)Cl`, under setting [1], the concentration at half-maximal activity (AC50) was 1840 nM [falling, partial curve].

Consider `O=C(COC(=O)c1ccccn1)c1ccc(Br)cc1`, for which the cell number change was -1.09%. Also, under setting [1], the AC50 is 6510 nM [falling, single point].

Take `Cn1c(=O)n(CCc2ccccc2)c(=O)c2c1nc1n2CCCN1c1ccccc1`: the AC50 under setting [1] is 4110 nM [rising, single point].

Regarding `COc1ccc(CCNC(=O)c2cc(C(=O)c3cc(Cl)ccc3O)cn(CCc3ccc(OC)cc3)c2=O)cc1`, the cell number change was -21.1%. Under setting [2], the AC50 was 1300 nM [falling, full curve].

`O=C(NCc1cccc(F)c1)c1ccc(N2C(=O)Cn3c(cc4sccc43)C2=O)cc1`: the cell number change came to 46.2%. The AC50 under setting [2] is 14600 nM [rising, single point]. The AC50 under setting [1] is 65.1 nM [falling, partial curve, poor fit].

With `CC(=O)c1ccc(NC(=O)c2ccc(C)c(Br)c2)cc1`, the cell number change turned out to be 2%. For the same molecule, the concentration at half-maximal activity (AC50) under setting [1] was 29100 nM [falling, single point].

Regarding `CN(C1CCS(=O)(=O)C1)S(=O)(=O)c1cccs1` (centres undefined), the cell number change was 4.92%.

As for `c1ccc(-c2noc(CCC3CCCC3)n2)cc1`, the cell number change was -51.1%.

For the molecule `O=C(Nc1ccccc1C(F)(F)F)c1cnccn1`, the cell number change was 13.8%.

Regarding `CN1CCN(C(=O)C2CC(=O)N(c3ccc(Cl)cc3)C2)CC1` (centres undefined), the AC50 under setting [2] is 130 nM [rising, full curve, poor fit].

Source of the values: PubChem BioAssay AID2685 (National Center for Advancing Translational Sciences (NCATS), 2010).
